No constants are given. Whether binding was seen depends on the method and setting. For some assays here: In cells and extracts the contact can be indirect. Some entries that bind do so weakly or less than the wild type.

The target in assay [1] is T1, CD14 (endogenous, RAW264.7 cells) (mouse (endogenous in RAW264.7)) (UniProt P10810).
T1 sequence: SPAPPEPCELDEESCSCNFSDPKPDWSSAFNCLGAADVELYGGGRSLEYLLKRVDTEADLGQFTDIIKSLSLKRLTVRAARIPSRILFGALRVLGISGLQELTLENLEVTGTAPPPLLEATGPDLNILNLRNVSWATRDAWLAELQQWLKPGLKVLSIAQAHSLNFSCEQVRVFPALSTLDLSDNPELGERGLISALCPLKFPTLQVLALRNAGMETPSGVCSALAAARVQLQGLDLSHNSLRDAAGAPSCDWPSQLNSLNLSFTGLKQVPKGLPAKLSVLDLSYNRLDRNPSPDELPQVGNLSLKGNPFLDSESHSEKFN
The experiment in a line: co-IP; RAW264.7 cells serum-starved 5 h, treated with 100 ng/mL recombinant murine CXCL10 for 1 h, washed, lysed in RIPA buffer; lysate incubated with anti-CD14 (also anti-TLR2, anti-TLR4 or IgG) overnight at 4°C, then protein-A/G magnetic beads; immunoblotting; only the binder purified.

The target of assay [2] is T2, recombinant murine CD14 (mouse) (UniProt P10810).
T2 sequence: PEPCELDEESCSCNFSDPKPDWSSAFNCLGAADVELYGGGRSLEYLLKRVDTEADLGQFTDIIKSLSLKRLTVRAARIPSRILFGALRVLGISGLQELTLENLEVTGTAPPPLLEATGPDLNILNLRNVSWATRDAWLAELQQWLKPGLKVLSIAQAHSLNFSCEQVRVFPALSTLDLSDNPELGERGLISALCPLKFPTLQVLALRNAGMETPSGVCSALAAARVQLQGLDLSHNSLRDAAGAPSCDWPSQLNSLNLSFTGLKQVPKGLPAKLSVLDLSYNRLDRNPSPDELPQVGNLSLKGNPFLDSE
The experiment in a line: co-IP; 5 μM recombinant murine CD14 with 5 μM recombinant murine CXCL10 in 400 μL of 20 mM Tris-HCl pH 7.5, 250 mM NaCl, 30 min at room temperature; immunoprecipitated with anti-CD14 antibody and protein A/G magnetic beads at 4°C; immunoblotting; both purified. A general note: A western blot detects proteins with antibodies after separation by electrophoresis.

B1: recombinant murine CXCL10 (ligand, UniProt P17515 22-98)
chain: IPLARTVRCNCIHIDDGPVRMRAIGKLEIIPASLSCPRVEIIATMKKNDEQRCLNPESKTIKNLMKAFSQKRSKRAP
Take B1: the binding entry in assay [1] and in assay [2] was “binds” in each case.

These data come from publication PMC12321389.
